Test results published in PubChem BioAssay AID1508600 (Functional Genomics Laboratory (NCATS/FGL), 2020).
Among all 53,000 sequences or so, about 3,700 (7%) were called active.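 Rule for the calls: active = gene knockdowns whose robust z-score for IL-1 alpha signal is at least 2 or at most -2, so actives lie on both sides; inactive = the rest.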 The list shows a part of the results.

Test: Components of the Cytosolic LPS Sensing Pathway: Gene Identification via Genome-wide siRNA Screen;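 note: robust z of the log signal after scaling to non-targeting control siRNA wells of the plate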
Conditions: RAW264.7 macrophages, IL-1a HTRF, actives lie on both sides, screened at 100 nM (by protocol), cells primed 5 h with Pam3CSK4 first
In short: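 Using IL-1a HTRF as read-out, the screen measured release from RAW264.7 cells after 48h siRNA knockdown (100 nM), 5 h Pam3CSK4 priming and 24 h cytosolic LipidA. Values were expressed relative to negative-control wells as robust z-scores.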

Sequence | z-score
ACCCUUUUGUUUACACUCUTT against Olfr763 | inactive: -0.76
GGUGGAAGGCAACAUAUAUTT against Vta1 | inactive: -1.55
GAUGGACAGAAAUCAGGAGTT against Arap1 | inactive: 0.208
GGACCCAUCGGAUAACUAUTT against Stk40 | inactive: 0.499
GGACGACGACUUUGAGAGGTT against Map2k2 | inactive: 0.348
GCAACUCUAACUUAUAAGATT against Dennd1a | inactive: -0.569
GGGUGAUGAGCCUAAGCUATT against Scamp5 | inactive: -0.616
GGACUUGGGUCAUUGUGAGTT against Grpel1 | inactive: -0.93
GGAGUUAAACAAACAGAGUTT against Psma6 | inactive: -0.855
GGCUCCAAGGAGAAUUGUUTT against Bbox1 | inactive: -0.93
GGAACAAGUUUGUGCUUUCTT against Cpd | inactive: 0.728
GGAACAAAAGUGUGAAGAATT against Ccnd2 | inactive: -0.0981
CCAUCUAACCCUAUAUUAGTT against G6pdx | inactive: -1.21
CGGUUCUCUACAUUACUGCTT against Pllp | inactive: 0.223
CGUGGCUAGGUUAUUUAAATT against Htr1d | inactive: 1.01
GGAGUAUGAAUGCUAUGUCTT against Fsd2 | active: -3.24
GGGCAAAGACAGUAUUCAATT against B530045E10Rik | inactive: 0.4
GGAUACAAUGCAACUGUCCTT against Kif4 | inactive: -1.08
GGAAUUGGAUUCAAGUAUGTT against Ubiad1 | inactive: -0.253
GCUCCCUUUACAACUCUCATT against Ifna6 | inactive: 1.96
GCAUGAACGACCCGCUGAATT against Wdsub1 | inactive: 0.331
GGAUUCCAAAUGCUUACAATT against Lysmd3 | inactive: 0.757

Sequence | z-score
GCCGCUGCACUACAAUUUGTT against Trhde | inactive: 0.717
CCAGAGCCCAAGCCAAGUUTT against Nanos3 | inactive: 0.639
GCAUCUGCUAUGGGAAGACTT against Ttc39b | inactive: 1.03
GGAGAAGGGACCUCAGAACTT against Plrg1 | inactive: 0.084
GGUCAUUGUGUUAUUACCATT against Prdx4 | inactive: -0.187
GGAUAUGUGUCGCCAUAUATT against 4930590J08Rik | inactive: 0.835
GCCAAUUGAUUAUAAUCGCTT against Riok2 | inactive: 0.0984
GGUUUUUCUCAACAAACUCTT against Svs2 | inactive: -0.511
CCCACAGUUGACUGUCUUUTT against Clcnkb | inactive: 0.46
GGCUUUACAGAAAUAUCCUTT against Exoc3l2 | inactive: -1.89
CCCUAAUUCUUAGGCCUUUTT against Bloc1s3 | inactive: -0.242
GGGCCUAUCAAGAUUUUCCTT against Stk11ip | inactive: -0.0264
GGUCAAUGACAUCGUCAGUTT against Fam171b | inactive: -1.04
GCUGGUAUUGGCGAAUGGUTT against Lysmd4 | inactive: 0.358
GGACCUGUUUGAUCCCAUCTT against Ckm | inactive: -1.54
GCAGAUCAUUCCCGUGUUGTT against P2ry14 | inactive: 0.565
GGUUUUGGUCACUCUUUGGTT against Olfr1240 | inactive: -0.00786
GCUCAACUGCCUGAGAUGCTT against Pink1 | inactive: 0.573
GGAGUCAUGGAUGAAUGUATT against Abhd18 | inactive: -1.27
GGACCUUUAUAAUGACAGGTT against Uqcrb | inactive: 0.603
CCAAACAAUGUUGUUUAGGTT against Rilpl1 | inactive: -0.965
GGUGACUCACUCGUGUUAATT against Scn9a | inactive: -0.0161

2 entries picked at random from those above:
Sequence | z-score
GCUGGUAUUGGCGAAUGGUTT against Lysmd4 | inactive: 0.358
GGUGACUCACUCGUGUUAATT against Scn9a | inactive: -0.0161

Following part:

Sequence | z-score
GGUUCUGGAAAGUUCUCUGTT against Sorcs2 | inactive: -0.0101
GGCUUAUGUUUGCUUUGUUTT against Piwil1 | inactive: 0.0916
GGUUUUACGGAAACGGGAATT against Nid2 | inactive: 1.45
GGGCUCUAAAAAGGAUUUUTT against Snrnp200 | inactive: -0.0221
GGAAGAAAUGCAGGUGUGGTT against Gab3 | active: -2.15
GGGCAUCCUCUUCAAAGAUTT against Drc3 | inactive: -1.12
GGAGUUAUGGAUGACGUGGTT against Stard4 | inactive: -1.07
GGAAGAAUAAAGUGCUUUGTT against Chga | active: 2.27
GGGUGUACAGGAUUUCCACTT against Nfyc | inactive: 0.0255
GCAGAAGUUUUGAGCCACUTT against Ralgps2 | inactive: 0.193
GUGAUGUGGCCAUGUCAAUTT against Olfr641 | active: -2.61
GGGCGAAAAGGUGAAACAATT against Flot2 | inactive: -0.864
GGCUCUUGUCACAUGAUCATT against Jagn1 | inactive: -1.77
GGUACACAGCCAAAGACUGTT against A030005L19Rik | inactive: 0.256
GGAGAUCCACAUCAACGAATT against Slc9a1 | inactive: -0.589
GCCUGACGAUAAGAAAGAATT against Map4k4 | inactive: -0.907
GGCUUAAAGAAGAAAAAGATT against Spdl1 | inactive: 0.757
GGUAUCCUGUCAUCAUGAGTT against Olfr272 | inactive: 0.182
GCAAAUACCUGUUGAAUAATT against Timd4 | inactive: 1.12
GGUAGAGGCAGUCAUGACATT against Abcg5 | inactive: -1.12
GCCAUCUUUUUACCUGGUCTT against Selenon | inactive: -0.845
UUGCUAUAAGGGCAUGGAATT against LOC434448 | inactive: 1.42

Sequence | z-score
GCCUACAACCGCUUCUUGGTT against Fam83h | inactive: -0.912
GGAAGAGAAGAAGGAACUUTT against Ada | inactive: -1.51
GCAGGAAAGAGUUCAACAGTT against Gimap4 | inactive: -1.02
CGAGAUCACAGACCAAUUGTT against Shisa2 | inactive: 0.513
GGACAAAACGUGCAAUAUGTT against Pkdcc | inactive: -0.188
CGGAUUAUGAGGGACAAGCTT against Agk | inactive: 1.85
GCUCUCUAUAGGAUAAUGGTT against Vwa5b2 | inactive: -1.86
GCACGCCUUACUGGAAUCCTT against Bub1 | inactive: -0.58
GGACCUCCCACAGUGUUAUTT against Enpp2 | inactive: -0.574
GGUCAAGGUCAAAUAAAAGTT against Lgals2 | inactive: -1.98
GGUGUUUGCCCUUCCGUGATT against Gper1 | inactive: 0.521
CGUGUAUCGCAGUUUGUCCTT against E2f3 | inactive: 0.851
GGAGCUAAAAACUUGUAUATT against Rpl23 | inactive: -0.0611
UGUGCCCUAUAGAACCUGUTT against Krtap13-1 | inactive: 0.394
GGAUGAAAUCGAUUGUCUCTT against Ctsa | inactive: 0.707
GGGAAAUUUACAGAAAGUGTT against Igtp | inactive: 0.956
CGACUCCCACCUUUAGGAGTT against Nkx2-5 | active: 2.5
CGAAACACCAGAUGUAUUCTT against Gck | inactive: -0.551
GGUAUGCGAUCAAACUUUUTT against Ttr | inactive: -0.309
GGAUCUUCUACACAGUAAATT against Ppp2r3d | inactive: -0.0431
GGAACUGGAUGAAUCAAAUTT against Ehbp1 | inactive: -0.262
GGACAUGAUCCAUAUUGCATT against Eif3l | inactive: -1.06

Sequence | z-score
GGGUUGAUGUGGUAGAUGATT against Zfp185 | inactive: -1.27
GCUACGCAUUGAGGAGCUATT against Pkn1 | inactive: 0.168
GCCUGUUCGGGAACCUUAUTT against Olfr299 | inactive: 1.61
CGACCUGAGUGAAAAGAAGTT against Stk32c | inactive: 0.754
GGCUCUGGGAAUGACGACATT against Zbp1 | inactive: 0.357
CCUCGUUCCUUUGAAAUCATT against Gfi1 | inactive: 0.255
GCUUACGUUUCAUUCUCCCTT against Bora | inactive: -1.59
GGAACUUUGAACUGAAGGGTT against Upb1 | inactive: 1.53
CGAUAUCCUGAAACUGCCUTT against Tbx3 | inactive: 0.00551
GGUGAGGACCUUCUUCCUUTT against B3galt5 | inactive: -1.5
GGGCUUCAGUGAGAACGAUTT against Ift46 | inactive: -1.3
GCCGAGACAUAUGCCAAGATT against Dmpk | inactive: -1.07
CCUCUCUGUACAGUCAACCTT against Il20rb | inactive: 0.151
GCCACUCAGAGUGUGGAGUTT against Ddx20 | inactive: -0.95
GGCAAUCCAUUUCUCAGUCTT against Tmprss5 | inactive: -0.962
GGCUGUCAAGAAGCACAUCTT against Inhba | inactive: 1.08
GCGAAAAGUCCACCACAUATT against Cyp51 | inactive: -0.958
GCUUGUUUGUUAGAGCUAGTT against Gad1 | inactive: 0.297
GGAAUAAACCUUGUGCAGUTT against Polh | inactive: -1.07

An excerpt of these results, field by field:
GGAGCUAAAAACUUGUAUATT against Rpl23
  z-score: inactive: -0.0611
UGUGCCCUAUAGAACCUGUTT against Krtap13-1
  z-score: inactive: 0.394
GGAUGAAAUCGAUUGUCUCTT against Ctsa
  z-score: inactive: 0.707
GGGAAAUUUACAGAAAGUGTT against Igtp
  z-score: inactive: 0.956
